In PubChem BioAssay AID588499 (NMMLSC, 2011):
Hit rate of the full screen: of about 360,000 compounds, about 610 (0.17%) were called active. This list was built around the results that the source calls inconclusive (neither active nor inactive); the mix of calls is not that of the screen. No stated cut-off is given here; in the data, active means inhibition above about 30%; inconclusive means no clear call, values can overlap the other calls; inactive means below that.

The molecules below were run on Botulinum neurotoxin type A light chain protease (Clostridium botulinum A str. ATCC 3502) (assay: blockers of BoNT/A LC substrate cleavage – biochemical, flow cytometry, MLPCN library, primary screen (AID 588499; further: plate controls were buffer without enzyme for full effect and enzyme alone for no effect)). Settings: multiplex microsphere protease substrate cleavage, at 10 µM, active compounds read high.

| Structure (SMILES) | inhibition |
| --- | --- |
| O=C(NCCCN1CCOCC1)c1cc2ccccc2cc1O | inactive: 0.3% |
| Cc1ccc(C2(C(F)(F)F)NC(=O)N3CCN=C3S2)cc1 (stereo unspecified) | inconclusive: 1.8% |
| c1ccc2c(c1)Nc1cc3ccccc3cc1S2 | inconclusive: 5.2% |
| O=C(COc1ccccc1[N+](=O)[O-])NCC1COc2ccccc2O1 (stereo unspecified) | inactive: 0.8% |
| COc1ccc(-n2sc3ccccc3c2=O)cc1 | inactive: 19.8% |
| CC(C)(CC(=O)O)CC(=O)NNc1ncccc1C#N | inconclusive: 3.9% |
| CCOC(=O)c1sc(NC(=O)C2C3C=CC(C3)C2C(=O)O)nc1C (stereo unspecified) | inactive: -0.2% |
| Cc1cc(=O)oc2c(C)c(OC(=O)c3ccco3)ccc12 | inactive: 1.3% |
| CC(NS(=O)(=O)c1ccc2c(c1)CC(=O)N2C)c1ccccc1 (stereo unspecified) | inactive: -3.6% |
| CCOC(=O)Cn1nnnc1CN(Cc1cccs1)Cc1cc2cc(C)ccc2[nH]c1=O | inactive: 15.8% |
| CCOC(=O)C1CCN(C(c2cc3ccc(C)c(C)c3[nH]c2=O)c2nnnn2C2CCCCC2)CC1 (stereo unspecified) | active: 33.2% |
| CC(NC(=O)C1CC1)c1ccc(-c2ccccc2)cc1 (stereo unspecified) | inconclusive: -2.6% |
| Cc1cc(Br)ccc1OCCOCCN1CCCC1 | inactive: 2.6% |
| COC(=O)CN1C(=O)C(C)(C)Oc2ccc(C(=O)NC3CC3)cc21 | inconclusive: -1.4% |
| CC(=O)c1cccc(CN(C)CC2CCCN(CCc3ccccc3C)C2)c1 (stereo unspecified) | inconclusive: 4.8% |
| Clc1ccccc1-c1nnc2sc(-c3ccccn3)nn12 | inconclusive: 2.4% |
| C=CCNC(=O)c1onc(CSc2cc(C)cc(C)c2)c1C(=O)NCC=C | inactive: 0.6% |
| Cc1ccc(N2C(=O)c3n[nH]c(C)c3C2c2ccco2)cc1 (stereo unspecified) | inconclusive: 0% |
| COc1cc(N)c2ncccc2c1OC | inactive: 0.1% |
| O=C(CCC(=O)Nc1nnc(C2CCCCC2)s1)Nc1ccc(F)cc1 | inactive: -0.2% |
| CCCCN1C2=NCCCN2c2ccccc21 | inactive: -1.4% |
| CCC(=NCc1ccco1)c1c(C(F)(F)F)[nH]n(-c2nc3ccccc3s2)c1=O | inactive: -2% |
| COc1cc(N2CCCC2)c(OC)cc1/C=C1/NC(=S)NC1=O | inconclusive: 0.8% |
| CCOC(=O)c1cnn(-c2cc(C(C)(C)C)nc3c(-c4ccccc4)c(C)nn23)c1N | inconclusive: -9.9% |

| Structure (SMILES) | inhibition |
| --- | --- |
| CCOC(=O)c1cn2nc(Oc3ccc(NC(C)=O)cc3)ccc2n1 | inconclusive: -31.9% |
| CC(C)CC(=O)NC(=S)Nc1ccc(N2CCN(C(=O)c3cccs3)CC2)cc1 | inconclusive: 4.2% |
| O=C(O)CCC(=O)N1CCc2cc(S(=O)(=O)NC3CCCC3)ccc21 | inactive: -1.8% |
| O=C(CCCOc1ccccc1)Nc1nccs1 | inconclusive: 5% |
| c1ccc2c(c1)CCCn1nnnc1-2 | inconclusive: -3.5% |
| Cc1cccc(N2CCN(C(=O)CCNC(=O)Cn3ccc4ccccc4c3=O)CC2)c1C | inconclusive: 6.8% |
| Cc1cccc(CN2CCN(c3ccccn3)CC2)c1 | inconclusive: -2.9% |
| Cc1ccc(S(=O)(=O)c2cc3ccc(O)cc3oc2=O)cc1C | inactive: -1.3% |
| Cc1ccccc1N1CC(=O)Nc2c(oc3nc(-c4ccccc4)cc(C)c23)C1=O | inconclusive: -2.8% |
| CCCC(=O)NC1=C(C#N)C2(CCCC2)Cc2ccccc21 | inconclusive: -5.4% |
| CCOC(=O)c1ccc(NC(=S)NCCCN2CCCCC2)cc1 | inconclusive: 0.9% |
| OC(c1ccccc1)(c1ccc(Cl)cc1)C1CN2CCC1CC2 (stereo unspecified) | inconclusive: 1.1% |
| C=CCOc1c(Br)cc(CNCCCN2CCOCC2)cc1OC | inactive: -0.1% |
| COc1cc(CN(C2CC2)S(=O)(=O)c2ccccc2Br)cc(OC)c1 | inactive: -0.7% |
| Cc1cc(Cl)cc(C)c1OCC(=O)N1CCN(c2ncccn2)CC1 | inactive: -2.2% |
| CCCCCCC1CC(=O)NC(=O)N1 (stereo unspecified) | inconclusive: -48.6% |
| COC(=O)c1ccccc1NC(=O)CSc1nnc(C(CO)NC(=O)c2ccccc2Cl)n1C (stereo unspecified) | inconclusive: 5.1% |
| CC1=C(C(=O)Nc2cccnc2)C(c2ccncc2)n2nnnc2N1 (stereo unspecified) | inconclusive: 3.5% |
| COCCNC(=O)Nc1ccc2nc(-c3cccs3)c(-c3cccs3)nc2c1 | active: 132% |
| O=C(Cn1c(/C=C/c2ccccc2)nc2ccccc21)Nc1ccc(F)cc1 | inactive: -1% |
| COC(=O)C(NC(=O)C(C)NC(=O)OCc1ccccc1)C(C)C (stereo unspecified) | inconclusive: 4.6% |
| Cc1noc(-c2ccccc2)c1NC(=O)Nc1ccccc1 | inconclusive: 4.4% |
| Cc1ccc(Cn2c(C(C)Nc3nc(-c4ccc(F)cc4)cs3)nc3cc(C(F)(F)F)ccc32)cc1 (stereo unspecified) | inactive: -0.1% |
| CCC(=O)Nc1nc2ccccc2n1CCN1CCOCC1 | inactive: -0.6% |

Looked up above.
Value for `CCOC(=O)c1sc(NC(=O)C2C3C=CC(C3)C2C(=O)O)nc1C` (stereo unspecified) under inhibition: inactive: -0.2%
Value for `COc1cc(N)c2ncccc2c1OC` under inhibition: inactive: 0.1%
Value for `CCCC(=O)NC1=C(C#N)C2(CCCC2)Cc2ccccc21` under inhibition: inconclusive: -5.4%
Value for `O=C(Cn1c(/C=C/c2ccccc2)nc2ccccc21)Nc1ccc(F)cc1` under inhibition: inactive: -1%
Value for `c1ccc2c(c1)CCCn1nnnc1-2` under inhibition: inconclusive: -3.5%
Value for `COc1cc(CN(C2CC2)S(=O)(=O)c2ccccc2Br)cc(OC)c1` under inhibition: inactive: -0.7%
Value for `CCCCN1C2=NCCCN2c2ccccc21` under inhibition: inactive: -1.4%

Additional records:

| Structure (SMILES) | inhibition |
| --- | --- |
| COc1cc(Br)c(Br)c(Br)c1N | inconclusive: -60.5% |
| NC(=O)CSc1nnc(-c2ccncc2)o1 | inactive: -0.2% |
| CCOc1ccc2nc3cc(NCc4ccc(OC)cc4)ccc3c(N)c2c1 | active: 69.9% |
| Cc1cc(Oc2nnnn2-c2ccccc2)ccc1Cl | inconclusive: 3% |
| O=C(CN1C(=O)/C(=C\C=C\c2ccccc2)SC1=S)Nc1ccc(F)cc1 | active: 33.6% |
| CN(C)c1ccc(C2C3CCCc4ccccc4C3=NN2C)cc1 (stereo unspecified) | inconclusive: 14% |
| COC(=O)c1cnc(Oc2ccc(NC(=O)NC(=O)c3c(OC)cccc3OC)cc2)cc1C(F)(F)F | inconclusive: 6.2% |
| O=C(Nc1cccc2cccnc12)c1ccc2c(c1)OCCO2 | inconclusive: -0.6% |
| Cc1ccc(S(=O)(=O)Nc2cc(-c3nn(C)c(=O)c4ccccc34)ccc2N2CCOCC2)cc1 | inconclusive: 4.8% |
| CC1(C(=O)NCc2ccccc2Br)CCN1Cc1ccc2ccccc2c1 (stereo unspecified) | inactive: -0.2% |
| O=C(CSCc1nc2ccccc2[nH]1)N1CCN(c2cccc(Cl)c2)CC1 | inconclusive: 0.6% |
| CC(C)c1ccc(NC(=S)N2CCCC(c3ccc(F)cc3)=N2)cc1 | inconclusive: 6.2% |
| O=C(NCCS(=O)(=O)N1CCN(c2ccccc2)CC1)C1CCCC1 | inactive: 0.9% |
| O=C(C1CCCCC1)N1CCN(c2ccnc3cc(Cl)ccc23)CC1 | inconclusive: -34.6% |
| Cc1ccc(C)c(/C(O)=C2\C(=O)C(=O)N(Cc3cccnc3)C2c2cccnc2)c1 (stereo unspecified) | inactive: 0.1% |
| Cc1csc(NC(=O)c2cnccn2)n1 | inconclusive: 2.5% |
| O=C(Nc1ccc(Cl)cc1)N1CCC(c2nc(-c3cccs3)no2)CC1 | inconclusive: -2.1% |
| Oc1cncc(Cc2ccccc2)c1 | inconclusive: -5.6% |
| O=C(CN1C(=O)NC2(CCCC2)C1=O)Nc1cc(C(F)(F)F)ccc1N1CCCCC1 | inactive: -0.8% |
| OC(c1cc(-c2ccc(Cl)cc2)nc2ccccc12)C1CCCCN1 (stereo unspecified) | inactive: -2.9% |
| COC1=Nc2ccccc2N2CCN=C12 | inactive: -0.1% |
| COc1ccc(-c2cc(-c3cccs3)nc3sc(C#N)c(N)c23)cc1 | active: 40.2% |
| Nc1cc2c(cc1Cl)-c1ccc([N+](=O)[O-])cc1C2=NO | inconclusive: -0.7% |
| CCOC(=O)c1cc2sccc2n1CC(=O)c1ccc2c(c1)OCCO2 | inconclusive: -6.9% |

| Structure (SMILES) | inhibition |
| --- | --- |
| O=C(Nc1nnc(-c2ccccc2)s1)c1cc(S(=O)(=O)N2CCOCC2)c(Cl)cc1Cl | inconclusive: -2.4% |
| C=C(C)CSc1cc(C)nc2c(-c3ccccc3)c(C)nn12 | inconclusive: 13.3% |
| Cc1ccccc1N=Nc1c(C)[nH]n(C(N)=S)c1=O | inactive: 0.4% |
| O=C(Nc1cccc(Cl)c1)N1CCN(C2c3ccccc3-c3ccccc32)CC1 | inconclusive: -32% |
| COCCn1c(SCC(=O)N2CCCc3ccccc32)nnc1-c1ccco1 | inconclusive: 3.8% |
| Cc1ccc(CNCC(O)c2ccccc2)s1 (stereo unspecified) | inconclusive: -2% |
| COC(=O)c1c(NC(=O)c2ccccc2)sc2c1CC(C)(C)NC2(C)C | inactive: 0% |
| CN(C)CCOC(=O)/C(=C/c1cn(C)c2ccccc12)NC(=O)c1ccccc1 | inconclusive: 1.7% |
| C[C@@H]1CC[C@H](Cc2ccc(-n3cccc3)cc2)N1C(=O)OC(C)(C)C | inactive: -0.4% |
| Cc1nn(Cc2ccc(Cl)c(Cl)c2)c(C)c1NC(=O)c1cc(-c2ccc3c(c2)OCO3)on1 | inconclusive: 14% |
| Cc1ccc(OCC(=O)N/N=C/c2cccn2C)cc1C | inconclusive: 3.4% |
| Cc1ccc(C)c(OCCN2CCOCC2)c1 | inconclusive: 3.1% |
| Cn1c(/C=C(\C#N)C(N)=S)ccc1-c1ccc(Br)cc1 | active: 32.6% |
| Cc1nc2ccccc2n1/N=C/c1ccc([N+](=O)[O-])s1 | inactive: 12% |
| CCOC(=O)Nc1ccc(C(=O)Oc2ccccc2)c(O)c1 | inconclusive: -2.3% |
| COc1ccc(N2C(=NC(=O)C3CCCO3)SC3CS(=O)(=O)CC32)cc1 (stereo unspecified) | inactive: 0.3% |
| CCNc1nc(NCC)n2c(SCC(=O)Nc3c(C)cccc3C)nnc2n1 | inconclusive: 7.6% |
| Cc1ccc(NC(=O)c2cccc(S(=O)(=O)N(C)C3CCCCC3)c2)nc1 | inactive: -1.2% |
| COc1ccc(NC(=O)CCN2CC(C)OC(C)C2)c(OC)c1 (stereo unspecified) | inconclusive: 0.3% |
| Cc1ccc(Cl)cc1NC(=O)CCCN1C(=O)c2cccnc2C1=O | inactive: -0.3% |
| CCCN(C(=O)CSc1nnnn1C)c1c(N)n(Cc2ccccc2)c(=O)[nH]c1=O | inactive: -0.4% |
| O=S(=O)(NCc1cccnc1)c1cc(Cl)ccc1Cl | active: 34.2% |
| O=C(CSc1cccc2cccnc12)N/N=C/c1ccc(F)cc1 | inconclusive: 9.2% |
| COc1ccc(N(C=O)C(=S)SC)cc1 | inconclusive: -9.6% |
